For one substance, binding results are on record in PMC9617877.

By UniProt entry, the sequences of proteins in these tests, tags left out.
UniProt Q9NYV4: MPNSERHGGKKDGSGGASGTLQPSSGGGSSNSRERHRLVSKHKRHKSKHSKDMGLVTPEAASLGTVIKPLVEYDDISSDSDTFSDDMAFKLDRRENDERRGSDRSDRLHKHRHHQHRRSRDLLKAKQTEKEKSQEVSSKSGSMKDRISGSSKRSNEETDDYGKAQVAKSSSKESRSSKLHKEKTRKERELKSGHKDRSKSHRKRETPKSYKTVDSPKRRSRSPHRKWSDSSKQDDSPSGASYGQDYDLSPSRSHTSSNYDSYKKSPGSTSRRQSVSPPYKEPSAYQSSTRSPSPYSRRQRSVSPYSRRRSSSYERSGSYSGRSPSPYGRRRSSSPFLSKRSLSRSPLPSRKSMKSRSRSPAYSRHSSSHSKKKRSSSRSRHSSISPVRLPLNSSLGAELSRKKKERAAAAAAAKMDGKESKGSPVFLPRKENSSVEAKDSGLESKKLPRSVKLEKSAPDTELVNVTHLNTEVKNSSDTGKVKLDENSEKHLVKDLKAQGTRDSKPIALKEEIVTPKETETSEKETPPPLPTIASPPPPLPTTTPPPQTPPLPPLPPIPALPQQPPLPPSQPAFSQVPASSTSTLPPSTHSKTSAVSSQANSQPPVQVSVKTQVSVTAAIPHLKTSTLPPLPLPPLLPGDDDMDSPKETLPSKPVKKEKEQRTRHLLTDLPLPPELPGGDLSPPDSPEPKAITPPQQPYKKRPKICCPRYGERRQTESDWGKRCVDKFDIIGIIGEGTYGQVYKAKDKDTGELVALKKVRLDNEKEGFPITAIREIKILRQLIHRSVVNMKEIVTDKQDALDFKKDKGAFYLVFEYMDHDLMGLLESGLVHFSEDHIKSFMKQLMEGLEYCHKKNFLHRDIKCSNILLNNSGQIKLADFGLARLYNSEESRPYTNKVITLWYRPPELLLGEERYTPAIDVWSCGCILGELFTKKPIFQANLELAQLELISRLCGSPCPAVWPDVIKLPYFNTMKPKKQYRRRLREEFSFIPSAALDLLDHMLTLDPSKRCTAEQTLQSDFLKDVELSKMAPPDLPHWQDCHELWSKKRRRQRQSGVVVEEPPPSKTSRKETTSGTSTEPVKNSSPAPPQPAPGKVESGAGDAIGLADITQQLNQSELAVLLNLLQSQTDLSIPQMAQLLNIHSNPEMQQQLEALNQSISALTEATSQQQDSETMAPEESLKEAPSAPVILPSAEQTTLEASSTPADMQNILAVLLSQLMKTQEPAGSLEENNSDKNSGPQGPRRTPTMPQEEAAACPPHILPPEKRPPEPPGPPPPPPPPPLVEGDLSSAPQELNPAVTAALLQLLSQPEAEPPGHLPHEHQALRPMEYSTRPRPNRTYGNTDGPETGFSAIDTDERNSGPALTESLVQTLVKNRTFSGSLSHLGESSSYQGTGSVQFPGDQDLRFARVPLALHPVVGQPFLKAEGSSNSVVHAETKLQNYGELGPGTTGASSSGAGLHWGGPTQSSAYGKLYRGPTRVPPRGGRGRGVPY
UniProt O75909: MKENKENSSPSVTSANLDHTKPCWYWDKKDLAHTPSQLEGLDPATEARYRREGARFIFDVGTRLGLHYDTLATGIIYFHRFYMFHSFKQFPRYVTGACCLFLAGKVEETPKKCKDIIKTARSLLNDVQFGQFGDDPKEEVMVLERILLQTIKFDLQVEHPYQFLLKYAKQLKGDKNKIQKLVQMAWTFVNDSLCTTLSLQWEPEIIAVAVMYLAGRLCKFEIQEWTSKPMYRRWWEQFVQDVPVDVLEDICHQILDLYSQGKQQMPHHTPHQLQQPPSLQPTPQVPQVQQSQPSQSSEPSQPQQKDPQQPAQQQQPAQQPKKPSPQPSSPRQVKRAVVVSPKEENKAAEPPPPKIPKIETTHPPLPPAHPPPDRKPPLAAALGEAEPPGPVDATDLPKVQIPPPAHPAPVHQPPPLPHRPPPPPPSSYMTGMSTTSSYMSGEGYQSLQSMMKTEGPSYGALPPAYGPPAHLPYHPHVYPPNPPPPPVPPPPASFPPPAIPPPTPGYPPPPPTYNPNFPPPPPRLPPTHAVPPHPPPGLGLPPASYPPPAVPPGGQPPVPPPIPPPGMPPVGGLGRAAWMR

These are yes or no findings as the source states them, for the method shown. In cells and extracts the contact can be indirect. Some binding calls cover weakened binding; strength is not graded here.

The target in this test is Myc-tagged human CDK12 (6Myc-tagged CDK12 WT in pcDNA3) (human) (UniProt Q9NYV4). As to the kind of experiment: co-IP; Myc-CDK12 immunoprecipitated from transfected HEK293 cells, immunoblot for cyclin K; cells serum-starved overnight, then stimulated with PMA, EGF, insulin or FBS, or treated with BVD-523 or PD184352 before PMA.

Cyclin K (from UniProt O75909 1-580): the binding entry is “binds”.
